Over roughly 33,000 sequences, “E-score (-0.5 to 0.5)” has its median near -0.0014; the highest 2% begin near 0.25. This is one part of the list.
Molecular target: T1, Cad1 (UniProt P24813)
T1 sequence: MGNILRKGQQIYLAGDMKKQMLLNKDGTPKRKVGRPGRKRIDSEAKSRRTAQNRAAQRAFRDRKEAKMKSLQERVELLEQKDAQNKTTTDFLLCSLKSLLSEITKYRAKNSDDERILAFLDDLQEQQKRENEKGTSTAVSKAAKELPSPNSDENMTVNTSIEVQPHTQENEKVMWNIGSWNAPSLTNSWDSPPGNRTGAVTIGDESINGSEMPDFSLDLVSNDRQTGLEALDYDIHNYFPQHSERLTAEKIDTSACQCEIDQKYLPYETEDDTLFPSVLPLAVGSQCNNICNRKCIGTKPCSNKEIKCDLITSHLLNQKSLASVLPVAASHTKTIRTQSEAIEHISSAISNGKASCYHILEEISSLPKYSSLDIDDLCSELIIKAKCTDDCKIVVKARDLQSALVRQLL
Experiment: PBM E-score (8-mer binding enrichment) (E-score (-0.5 to 0.5)); higher = stronger / more preferred TF binding
Details: protein concentration: 100 nM; construct: GST-full length
Method in brief: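 For each ungapped eight-base word taken together with its reverse complement, the Universal PBM Analysis Suite assigned an E-score. Binding data came from GST-tagged yeast transcription factors, applied at about 100-200 nM, on universal all-10-mer Agilent arrays made double-stranded by primer extension. Fluorescent anti-GST marked bound protein, and scans were normalised with masliner.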

Row | Sequence | PBM E-score
1 | CCGCCATA | 0.0886
2 | GATATACA | 0.0899
3 | AGAGTCCG | -0.0441
4 | AGAGTTCC | -0.0891
5 | ACCTTGTC | -0.158
6 | ACTCCGTG | -0.0771
7 | CGAGGTCC | -0.176
8 | AAACCTCT | -0.0674
9 | ATTCCATG | 0.019
10 | GACCATCC | -0.138
11 | AAACTGGG | -0.0371
12 | CTATGCCC | -0.173
13 | ATTACGCA | 0.247
14 | AGGGGCCG | -0.251
15 | ATGCATTG | 0.11
16 | CCGATAAA | 0.0613
17 | CACAGACA | 0.208
18 | CTCCTAAG | -0.168
19 | GGGTGATA | -0.246
20 | ACTACACA | 0.197
21 | AACAGGTC | -0.118
22 | ATGAAAAC | 0.211
23 | TGACAGAA | 0.081
24 | CGCGATAA | 0.228

21 entries from above in a different format:
Row	Sequence	PBM E-score
3	AGAGTCCG	-0.0441
4	AGAGTTCC	-0.0891
5	ACCTTGTC	-0.158
6	ACTCCGTG	-0.0771
7	CGAGGTCC	-0.176
8	AAACCTCT	-0.0674
9	ATTCCATG	0.019
11	AAACTGGG	-0.0371
12	CTATGCCC	-0.173
13	ATTACGCA	0.247
14	AGGGGCCG	-0.251
15	ATGCATTG	0.11
16	CCGATAAA	0.0613
17	CACAGACA	0.208
18	CTCCTAAG	-0.168
19	GGGTGATA	-0.246
20	ACTACACA	0.197
21	AACAGGTC	-0.118
22	ATGAAAAC	0.211
23	TGACAGAA	0.081
24	CGCGATAA	0.228

(next part)

Row | Sequence | PBM E-score
25 | CAGATGGA | 0.0795
26 | ACTCGTTG | -0.0914
27 | TGTTCGAA | 0.186
28 | AACATGAA | -0.00852
29 | GAGGTTGC | -0.255
30 | AGAACTCC | -0.157
31 | GTGGGGTA | 0.102
32 | CCCTTCGA | 0.0124
33 | GAAATCGA | 0.0829
34 | TCCCGGAA | 0.183
35 | AAGACAGC | -0.0251
36 | ATTTTAAC | 0.0574
37 | ATTCACCC | -0.111
38 | AGAATCCT | -0.0342
39 | TAGTGTCA | 0.171
40 | AGCTTCAA | 0.0577
41 | CGCTCTCA | -0.0678
42 | AATAGGAT | 0.247
43 | TACGTTGA | 0.0119
44 | CTCGTTTC | -0.0328
45 | CCGTAATA | 0.113
46 | CGAGGCAC | -0.121
47 | CGAGAGAA | 0.0965
48 | GGAATTAC | 0.21

Row | Sequence | PBM E-score
49 | ATAGGTTC | 0.0253
50 | GTTCGAAA | 0.241
51 | AAGTTTTA | 0.121
52 | CGTTATCA | -0.0179
53 | CTTATGAA | 0.00813
54 | TACAGTAA | 0.0528
55 | AACCCCCT | -0.39
56 | CATGGAAG | -0.0598
57 | ATGACGGG | -0.0192
58 | ATTACATG | 0.301
59 | ACTCTGTA | -0.171
60 | AAGCAATC | 0.00394
61 | AAAGTAGC | -0.0802
62 | CCAACGCG | 0.0544
63 | AACGCCAT | -0.0315
64 | CACGAAGG | -0.0679
65 | CTGCATGA | -0.111
66 | AACGACGT | 0.121
67 | ATGACCAT | 0.0645
68 | CATCACAG | -0.00307
69 | CCCGGCGA | 0.0311
70 | CCCCTAAC | -0.15
71 | GAGCAAAC | 0.0254
72 | GAAGCGGA | -0.0376

Row | Sequence | PBM E-score
73 | AGGACTAT | -0.14
74 | GCAAACGA | 0.144
75 | ACGCGAGA | 0.0765
76 | CTATCTTC | -0.00322
77 | GGAGTACC | -0.11
78 | ATGAAATC | -0.00994
79 | ACACCCGA | 0.134
80 | GCTGAACC | -0.0931
81 | AAGATTCC | 0.15
82 | ACCACTGA | -0.11
83 | ATATAGTC | 0.249
84 | CCCCCTAC | -0.362
85 | CCAATGAA | -0.00068
86 | CGTGTATC | 0.0347
87 | GGAACCGA | 0.0676
88 | CCCTCGTA | -0.0776
89 | CGCCCGGC | -0.198
90 | AGGGCGTG | -0.139
91 | AGTATATG | 0.0763
92 | CATTGACA | -0.215
93 | CAAGCGTA | -0.0711
94 | CACCTCGC | 0.0354

Taken from above:
PBM E-score, AAGATTCC is entered as 0.15
PBM E-score, GCAAACGA is entered as 0.144

— the supplement of paper PMC3334620
